Data from patent US20130171163A1, “Inhibition of LAR Phosphatase to Enhance Therapeutic Angiogenesis” (priority 2010, published 2013).
These are yes or no findings as the source states them, for the method shown. Binding seen in cells or lysates may run through a third protein. Some entries that bind do so weakly or less than the wild type. Tags and fused reporters may be left off the sequences shown.

Sequences of proteins named here, by UniProt entry; tags and fusion partners are left off. Residues count along the entry.
UniProt P08069, residues 741-1367: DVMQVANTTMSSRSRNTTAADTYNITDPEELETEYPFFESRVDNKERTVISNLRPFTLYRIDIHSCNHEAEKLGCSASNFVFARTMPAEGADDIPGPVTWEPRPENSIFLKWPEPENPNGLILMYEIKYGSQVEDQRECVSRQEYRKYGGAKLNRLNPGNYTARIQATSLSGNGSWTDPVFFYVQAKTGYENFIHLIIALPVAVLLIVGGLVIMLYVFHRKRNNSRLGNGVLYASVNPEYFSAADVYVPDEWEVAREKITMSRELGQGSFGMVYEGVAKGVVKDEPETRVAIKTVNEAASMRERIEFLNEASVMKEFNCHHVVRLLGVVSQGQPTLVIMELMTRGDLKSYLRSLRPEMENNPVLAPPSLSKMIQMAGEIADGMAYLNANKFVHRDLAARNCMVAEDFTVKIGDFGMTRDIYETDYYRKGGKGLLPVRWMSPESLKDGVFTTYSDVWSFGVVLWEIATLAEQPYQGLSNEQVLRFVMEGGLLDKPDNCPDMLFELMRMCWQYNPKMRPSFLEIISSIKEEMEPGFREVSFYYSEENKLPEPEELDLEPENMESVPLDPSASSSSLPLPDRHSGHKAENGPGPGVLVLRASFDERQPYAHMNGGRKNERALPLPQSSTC

Molecular target: insulin-like growth-factor-1 receptor beta subunit (IGF-1Rβ) (human) (UniProt P08069)
Experiment: GST pulldown: GST-cLAR on glutathione-Sepharose beads incubated with HUVEC lysate, anti-IGF-1Rβ Western blot

binding: binds
B1: GST-cLAR fusion protein (protein, UniProt P10586 1285-1907, looked up, not shown: a dimerising Fc or GST)
chain: KRKRTHSPSSKDEQSIGLKDSLLAHSSDPVEMRRLNYQTPGMRDHPPIPITDLADNIERLKANDGLKFSQEYESIDPGQQFTWENSNLEVNKPKNRYANVIAYDHSRVILTSIDGVPGSDYINANYIDGYRKQNAYIATQGPLPETMGDFWRMVWEQRTATVVMMTRLEEKSRVKCDQYWPARGTETCGLIQVTLLDTVELATYTVRTFALHKSGSSEKRELRQFQFMAWPDHGVPEYPTPILAFLRRVKACNPLDAGPMVVHCSAGVGRTGCFIVIDAMLERMKHEKTVDIYGHVTCMRSQRNYMVQTEDQYVFIHEALLEAATCGHTEVPARNLYAHIQKLGQVPPGESVTAMELEFKLLASSKAHTSRFISANLPCNKFKNRLVNIMPYELTRVCLQPIRGVEGSDYINASFLDGYRQQKAYIATQGPLAESTEDFWRMLWEHNSTIIVMLTKLREMGREKCHQYWPAERSARYQYFVVDPMAEYNMPQYILREFKVTDARDGQSRTIRQFQFTDWPEQGVPKTGEGFIDFIGQVHKTKEQFGQDGPITVHCSAGVGRTGVFITLSIVLERMRYEGVVDMFQTVKTLRTQRPAMVQTEDQYQLCYRAALEYLGSFDHYAT
